PubChem BioAssay AID720706 (Broad Institute, 2013)
The list shows a part of the results. Some salts and complexes are drawn in separate pieces, as the source files them; their charges need not balance.

Assay: GFP drop in mixed WT/humanized-ribosome E. coli culture – GFP/RFP fluorescence, OD600, single point, bacterial rRNA inhibitor project, primary screen (AID 720706)
Settings: E. coli WT GFP vs humanized-ribosome RFP mutants, 24 h; OD600 change: measured here: OD600 growth, DMSO median 0, no signal -100; RFP signal change: measured here: RFP humanized mutant strains, DMSO median 0, no signal -100, concentration not given here

Question: For `O=C(OC1CN2CCC1CC2)c1ccccc1` (stereo not drawn), which OD600 change is on record?
Answer: 9.8%

Question: What about the RFP signal change of the same molecule?
Answer: -2.21%

Question: Which OD600 change does the source give for `Cc1c([N+](=O)[O-])cc([N+](=O)[O-])c(Br)c1[N+](=O)[O-]` here?
Answer: 6.71%

Question: And the RFP signal change?
Answer: -1.07%

Question: With `Cc1ccc(OP(=O)(Nc2ccccn2)Oc2ccc(C)cc2)cc1` as the molecule, how does the OD600 change read?
Answer: -24.9%

Question: What about the RFP signal change of the same molecule?
Answer: -4.62%

Question: With `CC(NC(=O)COC(=O)C(O)(c1ccccc1)c1ccccc1)c1ccccc1` (stereo not drawn) as the molecule, how does the OD600 change read?
Answer: -29.1%

Question: What about the RFP signal change of the same molecule?
Answer: 2.54%

Question: For `Cc1ccccc1OP(=O)(Nc1ccccn1)Oc1ccccc1C`, which OD600 change is on record?
Answer: -49.8%

Question: And the RFP signal change?
Answer: 2.61%

Question: With `O=c1c2cc([N+](=O)[O-])ccc2[nH]c2c([N+](=O)[O-])cc([N+](=O)[O-])cc12` as the molecule, how does the OD600 change read?
Answer: -2.38%

Question: And the RFP signal change?
Answer: 4.06%

Question: For `CCCCCOc1ccc(NP(C)(=O)Oc2ccc(Cl)cc2Cl)cc1` (stereo not drawn), which OD600 change is on record?
Answer: 8.59%

Question: And the RFP signal change?
Answer: -0.36%

Question: With `O=[N+]([O-])c1cc([N+](=O)[O-])c(OC2CCCCC2O)c([N+](=O)[O-])c1` (stereo not drawn) as the molecule, how does the OD600 change read?
Answer: 3.57%

Question: And the RFP signal change?
Answer: -7.19%

Question: With `CN(C)C(=O)Oc1noc2ccccc12` as the molecule, how does the OD600 change read?
Answer: 9.34%

Question: What about the RFP signal change of the same molecule?
Answer: 2.1%

Question: Which results are given for `c1ccc(-c2nn[nH]n2)c(-c2nn[nH]n2)c1`?
Answer: OD600 change: 7.92%; RFP signal change: 0.699%

Question: What does the source list for `Cc1ccc(NP(=O)(Oc2cccc(C)c2)Oc2cccc(C)c2)nc1`?
Answer: OD600 change: 4.65%; RFP signal change: 0.22%

Question: Which results are given for `CCNC(=S)/N=C(\N)N[N+](=O)[O-]`?
Answer: OD600 change: 5.91%; RFP signal change: -2.45%

Question: Which OD600 change does the source give for `O=C(NC1CCS(=O)(=O)C1)NP(=S)(Oc1ccccc1)Oc1ccccc1` (stereo not drawn) here?
Answer: -19.4%

Question: What about the RFP signal change of the same molecule?
Answer: -7.58%

Question: Which results are given for `COc1ccc(OP(C)(=O)Nc2ccc(SC(F)(F)F)cc2)cc1` (stereo not drawn)?
Answer: OD600 change: 0.24%; RFP signal change: 1.87%

Question: For `O=P1(N(CCCl)CCCl)OCCC2CCCCN21` (stereo not drawn), which OD600 change is on record?
Answer: 6.57%

Question: What about the RFP signal change of the same molecule?
Answer: 0.91%

Question: Which results are given for `Cc1ccccc1CN(C)C(=O)COC(=O)C(O)(c1ccccc1)c1ccccc1`?
Answer: OD600 change: -58%; RFP signal change: -9.63%

Question: Which OD600 change does the source give for `O=C(OCCN1CCN(CCOCc2ccccc2)CC1)C(O)(c1ccccc1)c1ccccc1` here?
Answer: -5.62%

Question: And the RFP signal change?
Answer: 1.73%

Question: Which OD600 change does the source give for `C[C@H]1OP(=O)(Oc2ccccc2)C[C@@H]2O[C@@H]21` (stereo partly drawn) here?
Answer: 19.1%

Question: What about the RFP signal change of the same molecule?
Answer: -1.75%

Question: With `C[C@@H]1C=CCP(=O)(Oc2ccccc2)O1` (stereo partly drawn) as the molecule, how does the OD600 change read?
Answer: -14.7%

Question: What about the RFP signal change of the same molecule?
Answer: 0.885%

Question: Which OD600 change does the source give for `CC(=O)c1ccc(N2CC2c2ccncc2)cc1` (stereo not drawn) here?
Answer: 14.6%

Question: And the RFP signal change?
Answer: 0.19%

Question: Which OD600 change does the source give for `N#C/C(=C\c1ccc(N(CCBr)CCBr)cc1)C(N)=O` here?
Answer: 3.2%

Question: What about the RFP signal change of the same molecule?
Answer: -2.05%

Question: With `O=C(OC1CN2CCC1CC2)c1ccc([N+](=O)[O-])cc1` (stereo not drawn) as the molecule, how does the OD600 change read?
Answer: -2.77%

Question: And the RFP signal change?
Answer: 0.213%

Question: For `COC(=O)C1(C)COP(=O)(NCc2ccccc2)OC1` (stereo not drawn), which OD600 change is on record?
Answer: 16.8%

Question: And the RFP signal change?
Answer: 0.818%

Question: With `CC(=O)Nc1ccc([As](=O)(O)O)c(O)c1` as the molecule, how does the OD600 change read?
Answer: 8.88%

Question: What about the RFP signal change of the same molecule?
Answer: 1.65%

Question: For `COc1ccc2c(c1O)-c1c(O)c(OC)cc3c1[C@H](C2)[N+](C)(C)CC3.O=[N+]([O-])c1cc([N+](=O)[O-])c([O-])c([N+](=O)[O-])c1[O-]`, which OD600 change is on record?
Answer: 9.77%

Question: What about the RFP signal change of the same molecule?
Answer: -2.5%

Question: Which results are given for `O=[N+]([O-])c1cc([N+](=O)[O-])c(Nc2ccc(Cl)cc2)c([N+](=O)[O-])c1`?
Answer: OD600 change: -73.9%; RFP signal change: -17.9%

Question: For `CCOc1ccc(C2=NCC(CBr)S2)cc1` (stereo not drawn), which OD600 change is on record?
Answer: 8.69%

Question: And the RFP signal change?
Answer: -3.39%

Question: With `CC(C)(C)C(=O)NC(Sc1ccccc1)C(Cl)(Cl)Cl` (stereo not drawn) as the molecule, how does the OD600 change read?
Answer: -28.9%

Question: And the RFP signal change?
Answer: -2.91%

Question: Which results are given for `CC(C)c1ccc(OP(C)(=O)Nc2ccc(SC(F)(F)F)cc2)cc1` (stereo not drawn)?
Answer: OD600 change: -13.9%; RFP signal change: 8.28%

Question: For `CCc1cc(O)c([N+](=O)[O-])c(C)c1[N+](=O)[O-]`, which OD600 change is on record?
Answer: -45.7%

Question: What about the RFP signal change of the same molecule?
Answer: -3.1%

Question: Which OD600 change does the source give for `CP(=O)(Nc1ccccc1F)Oc1ccccc1` (stereo not drawn) here?
Answer: 9.21%

Question: And the RFP signal change?
Answer: -8.39%

Question: Which results are given for `CP(=O)(Nc1ccc(SC(F)(F)F)cc1)Oc1ccc(F)cc1` (stereo not drawn)?
Answer: OD600 change: -38.1%; RFP signal change: -7.01%

Question: With `CCOP(=O)(CC)OCC` as the molecule, how does the OD600 change read?
Answer: 7.27%

Question: And the RFP signal change?
Answer: 0.194%

Question: Which results are given for `O=[As](O)(c1ccccc1)c1ccc(O)cc1`?
Answer: OD600 change: 10.8%; RFP signal change: 5.2%

Question: Which results are given for `Cc1cc(-c2cccc3ccccc23)c(C)cn1.O=[N+]([O-])c1cc([N+](=O)[O-])c(O)c([N+](=O)[O-])c1`?
Answer: OD600 change: -21.1%; RFP signal change: -4.97%

Question: With `O=[N+]([O-])c1cc([N+](=O)[O-])c(NCC2CCS(=O)(=O)C2)c([N+](=O)[O-])c1` (stereo not drawn) as the molecule, how does the OD600 change read?
Answer: 24.4%

Question: What about the RFP signal change of the same molecule?
Answer: 4.44%

Question: With `CC(=O)NC(SC(=S)N(C)C)C(Cl)(Cl)Cl` (stereo not drawn) as the molecule, how does the OD600 change read?
Answer: 14.9%

Question: And the RFP signal change?
Answer: -1.39%

Question: For `O=[N+]([O-])c1ccc(OP2(=O)COCCO2)cc1` (stereo not drawn), which OD600 change is on record?
Answer: 11.8%

Question: What about the RFP signal change of the same molecule?
Answer: -0.1%

Question: Which results are given for `O=[N+]([O-])c1ncn(CCn2cnc([N+](=O)[O-])n2)n1`?
Answer: OD600 change: 3.63%; RFP signal change: -0.755%

Question: Which OD600 change does the source give for `Cc1c(C(c2ccc3c(c2)OCO3)c2c(C)n(C)n(-c3ccccc3)c2=O)c(=O)n(-c2ccccc2)n1C.O=[N+]([O-])c1cc([N+](=O)[O-])c(O)c([N+](=O)[O-])c1` here?
Answer: 10%

Question: And the RFP signal change?
Answer: -0.37%

Question: With `C/C(N)=N\P(=O)(OCc1ccccc1)OCc1ccccc1` as the molecule, how does the OD600 change read?
Answer: 17.4%

Question: And the RFP signal change?
Answer: -2.57%

Question: For `C(Cc1nn[nH]n1)Cc1nn[nH]n1`, which OD600 change is on record?
Answer: 1.25%

Question: And the RFP signal change?
Answer: -2.13%

Question: What does the source list for `Nc1ccc([As](=O)(O)c2ccc([N+](=O)[O-])cc2)cc1`?
Answer: OD600 change: -2.66%; RFP signal change: -4%

Question: Which OD600 change does the source give for `O=P(Nc1ccccn1)(c1ccc(Br)cc1)c1ccc(Br)cc1` here?
Answer: 5.38%

Question: What about the RFP signal change of the same molecule?
Answer: -1.07%

Question: For `CN(C)C1(CNC(=O)c2ccc(Cl)c(S(N)(=O)=O)c2)CCCCC1`, which OD600 change is on record?
Answer: 0.621%

Question: And the RFP signal change?
Answer: -2.45%

Question: For `COc1ccc(N)c([N+](=O)[O-])c1[N+](=O)[O-]`, which OD600 change is on record?
Answer: -24.3%

Question: And the RFP signal change?
Answer: -3.55%

Question: With `COc1ccc(NP(C)(=O)Oc2ccccc2OC)cc1` (stereo not drawn) as the molecule, how does the OD600 change read?
Answer: 3.6%

Question: And the RFP signal change?
Answer: -1.9%

Question: With `O=P(Nc1nc2ccccc2s1)(c1ccccc1)c1ccccc1` as the molecule, how does the OD600 change read?
Answer: -10.9%

Question: And the RFP signal change?
Answer: -0.505%

Question: For `C[C@H]1OP(=O)(Oc2ccccc2)[C@H](O)[C@H](O)[C@H]1N=[N+]=[N-]` (stereo partly drawn), which OD600 change is on record?
Answer: 16.2%

Question: And the RFP signal change?
Answer: -0.176%

Question: Which OD600 change does the source give for `O=[N+]([O-])c1ncn(CCn2ncnc2[N+](=O)[O-])n1` here?
Answer: 5.76%

Question: And the RFP signal change?
Answer: -0.565%

Question: What does the source list for `CC(C)(C)C(=O)NC(Sc1ccncn1)C(Cl)(Cl)Cl` (stereo not drawn)?
Answer: OD600 change: 7.75%; RFP signal change: -1.93%

Question: For `O=C(O)CNc1ccc([As](=O)(O)O)cc1`, which OD600 change is on record?
Answer: 18.7%

Question: And the RFP signal change?
Answer: 0.065%

Question: With `COC(=O)C1(C)COP(=O)(Nc2ccccc2)OC1` (stereo not drawn) as the molecule, how does the OD600 change read?
Answer: 13.5%

Question: And the RFP signal change?
Answer: -2.14%

Question: For `O=[N+]([O-])c1cccc(NC2=NCC(CBr)S2)c1` (stereo not drawn), which OD600 change is on record?
Answer: 1.42%

Question: What about the RFP signal change of the same molecule?
Answer: 3.25%

Question: For `O=P1(N(CCCl)CCCl)OCCCS1` (stereo not drawn), which OD600 change is on record?
Answer: 27.2%

Question: What about the RFP signal change of the same molecule?
Answer: 2.67%

Question: With `Nc1ccc2c(ccc3cccnc32)n1.O=[N+]([O-])c1cc([N+](=O)[O-])c(O)c([N+](=O)[O-])c1` as the molecule, how does the OD600 change read?
Answer: -18.8%

Question: And the RFP signal change?
Answer: -8.55%

Question: Which OD600 change does the source give for `CCOC(=O)c1ccc(NP(C)(=O)Oc2ccc(Cl)cc2)cc1` (stereo not drawn) here?
Answer: -24.1%

Question: And the RFP signal change?
Answer: -2.5%

Question: Which OD600 change does the source give for `O=C(Nc1cc([As](=O)(O)O)ccc1O)c1ccccc1` here?
Answer: 16.1%

Question: What about the RFP signal change of the same molecule?
Answer: 2.79%

Question: Which OD600 change does the source give for `CCN(/C(=N/P(=O)(N1CCOCC1)N1CCOCC1)N1CCOCC1)c1ccc(OC)cc1` here?
Answer: 2.97%

Question: What about the RFP signal change of the same molecule?
Answer: 0.345%
